Measured values taken from PubChem BioAssay AID493014 (National Center for Advancing Translational Sciences (NCATS), 2011).
Some of the results follow. These are further read-outs of the screen, such as a control signal, another cell line or another target. No call is given for them. Compounds called inactive in the main read-out are mostly missing here. Words in brackets tell the shape of the fitted curve; partial curves, single points and poor fits give uncertain potencies.

Test: qHTS Assay to Find Inhibitors of Chronic Active B-Cell Receptor Signaling
Settings: ABC-DLBCL IkBa-CBG/CBR reporter, luminescence ratio (green luciferase fused to IkBa over red control in TMD8 lymphoma cells), 4 h
Outline: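 TMD8 human ABC-DLBCL cells with doxycycline-inducible IκBα–green luciferase fusion and unfused red luciferase, in 0.5% FBS medium; compounds up to 46 uM, 4 h at 37C. Green/red luminescence ratio, filter-overlap corrected, fitted to concentration-response curves.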

[1] = measured here: CBR red luminescence, cell number
[2] = measured here: IkBa-CBG green luminescence

## CCSc1nc2c(c(=O)[nH]c(=O)n2C)n1C/C=C(/C)Cl
[1]
  AC50: 0.82 µM [falling, partial curve, poor fit]

## C/C(=N\NC(=O)c1ccc(N)cc1)C1CC1
[1]
  AC50: 10 µM [falling, partial curve, poor fit]

## Cc1ccc2cccc(NC(=S)NC(=O)c3ccccc3)c2n1
[1]
  AC50: 0.126 µM [falling, full curve]

## CCOC(=O)c1sc2nc(-c3ccccc3)ccc2c1N
[1]
  AC50: 0.231 µM [rising, full curve, poor fit]

## O=C(O)CCc1ccc(-c2ccccc2)o1
[1]
  AC50: 29.1 µM [falling, single point]

## C=CCN1C(=O)C2(NC(=O)c3ccccc3N2)c2ccccc21 (stereo unspecified)
[1]
  AC50: 11.2 µM [falling, partial curve, poor fit]

## COc1ccc(NC(=O)CSc2nnc(-c3ccccn3)n2N)c(OC)c1
[1]
  AC50: 6.31 µM [falling, partial curve, poor fit]

## CC1CCc2[nH]c3ccc(C(=O)NCC4CCCO4)cc3c2C1 (stereo unspecified)
[1]
  AC50: 9.2 µM [rising, partial curve]

## CNc1nc(SCC(=O)Nc2ccc(Cl)c(Cl)c2)nc(N2CCOCC2)n1
[1]
  AC50: 1.58 µM [rising, full curve]

## COc1cc(C(=O)Nc2ccc(C(F)(F)F)cc2)ccc1OCC(=O)N1CCOCC1
[1]
  AC50: 4.61 µM [falling, partial curve]

## COC(=O)c1ccc(NC(=S)Nc2ccccc2)cc1
[1]
  AC50: 29.1 µM [rising, single point]

## O=C1NC(c2ccc(-c3ccccc3[N+](=O)[O-])o2)C(C(=O)c2ccccc2)C(O)(C(F)(F)F)N1 (stereo unspecified)
[1]
  AC50: 20.6 µM [falling, single point]
[2]
  AC50: 29.1 µM [rising, partial curve, poor fit]

## CC1CCc2c(sc(N)c2C(=O)OC(C)C)C1 (stereo unspecified)
[1]
  AC50: 1.16 µM [rising, full curve, poor fit]

## N=C1S/C(=C\c2ccco2)C(=O)N1c1nccs1
[1]
  AC50: 2.51 µM [falling, full curve, poor fit]
[2]
  AC50: 3.98 µM [falling, single point]

## CCCCCCn1c(CN2CCN(CCO)CC2)nc2c1c(=O)n(C)c(=O)n2C
[1]
  AC50: 2.06 µM [rising, partial curve]

## CCN1C(=O)c2ccc(C(=O)NCc3ccco3)cc2C1=O
[1]
  AC50: 6.31 µM [falling, full curve]

## COc1ccc(CCC(=O)Nc2nnc(C(F)(F)F)s2)cc1
[1]
  AC50: 1.26 µM [rising, full curve, poor fit]

## COc1cc(-c2nc(-c3ccc4c(c3)-c3ccccc3S4(=O)=O)c(-c3ccccc3)[nH]2)cc(OC)c1OC
[1]
  AC50: 1.3 µM [falling, full curve]

## C=CCn1c(SCC(=O)NCCO)nc2sc(C)c(C)c2c1=O
[2]
  AC50: 17.8 µM [falling, partial curve, poor fit]

## Cc1ccc(S(=O)(=O)N(C)C)cc1[N+](=O)[O-]
[1]
  AC50: 2.24 µM [falling, partial curve, poor fit]

## COc1cc(C2C(C#N)=C(C)NC(C)=C2C#N)cc(OC)c1OC
[1]
  AC50: 11.6 µM [rising, partial curve]

## Cc1ccc(S(=O)(=O)N2CCCCC2)cc1NC(=O)Cn1ncc(Cl)c(Cl)c1=O
[1]
  AC50: 5.17 µM [falling, full curve]

## Cc1c(C(=O)Nc2c(C)n(C)n(-c3ccccc3)c2=O)oc2ccccc12
[1]
  AC50: 0.0058 µM [rising, full curve]

## COc1ccc(-c2csc(NS(=O)(=O)c3ccc([N+](=O)[O-])cc3)n2)cc1
[2]
  AC50: 16.4 µM [rising, partial curve, poor fit]

## CC1=NN(Cc2ccccc2)C(=O)C1C(c1ccncc1)C(C#N)C#N (stereo unspecified)
[1]
  AC50: 7.08 µM [falling, full curve, poor fit]

## O=c1oc(-c2ccccc2NS(=O)(=O)c2ccc(F)cc2)nc2ccccc12
[1]
  AC50: 20 µM [rising, partial curve, poor fit]

## Cc1ccc(OCC(=O)NC(=S)Nc2ccccn2)c(Br)c1
[1]
  AC50: 0.794 µM [rising, partial curve, poor fit]

## COc1ccc(Cl)cc1NC(=S)N(Cc1ccccc1C)CC1CCC(C(=O)O)CC1 (stereo unspecified)
[1]
  AC50: 3.55 µM [falling, partial curve, poor fit]
[2]
  AC50: 11.2 µM [rising, partial curve, poor fit]

## c1ccc(C2OCC3(CO2)COC(c2ccccc2)OC3)cc1 (stereo unspecified)
[1]
  AC50: 14.1 µM [rising, partial curve, poor fit]

## CCC(=O)Nc1c(C#N)c2nc3ccccc3nc2n1-c1ccccc1C
[1]
  AC50: 6.51 µM [rising, full curve, poor fit]

## O=C(CC(n1cncn1)C(Cl)(Cl)Cl)c1ccc([N+](=O)[O-])cc1 (stereo unspecified)
[1]
  AC50: 0.282 µM [rising, full curve, poor fit]

## CCOC(=O)c1c(S(=O)(=O)N2CCN(c3ccc(F)cc3)CC2)c(C)n(C)c1C
[1]
  AC50: 1 µM [rising, full curve, poor fit]

## O=[N+]([O-])c1cccnc1Oc1ccc(C2SCCS2)cc1
[1]
  AC50: 1.78 µM [rising, partial curve, poor fit]

## CCOC(=O)Cc1csc(NC(=O)CSc2nnnn2-c2ccc(F)cc2)n1
[1]
  AC50: 7.08 µM [falling, partial curve, poor fit]

## N#C/C(=C(/O)Cc1cccc2ccccc12)c1nc2ccccc2s1
[1]
  AC50: 1.03 µM [rising, full curve, poor fit]

## CCc1nc(N2CCN(c3nc(C)cc(C)n3)CC2)c2oc3ccccc3c2n1
[1]
  AC50: 2.06 µM [rising, partial curve, poor fit]

## O=C(c1cccc(F)c1)N1CCN(C(=O)c2nn3cccnc3c2Cl)CC1
[1]
  AC50: 25.9 µM [falling, partial curve, poor fit]

## COc1ccccc1C1CC(c2c(-c3ccccc3)c3cc(Cl)ccc3[nH]c2=O)=NN1S(C)(=O)=O (stereo unspecified)
[1]
  AC50: 7.94 µM [falling, partial curve, poor fit]

## O=c1cc(-c2ccccc2)nc(SCc2ccccc2F)[nH]1
[1]
  AC50: 2 µM [rising, full curve, poor fit]

## CC[C@]12c3[nH]c4ccccc4c3CCN1C(=O)C(CC(=O)NCCc1ccccn1)C[C@@H]2C(=O)N1CCN(C(=O)C2CC2)CC1 (stereo partly specified)
[1]
  AC50: 4.61 µM [rising, full curve, poor fit]

## COc1ccc(NC(=O)CC2C(=O)N(Cc3cccs3)C(=S)N2C(C)C)cc1 (stereo unspecified)
[1]
  AC50: 14.1 µM [falling, single point]

## Cc1nn(Cc2ccccc2Cl)c2sc(C(=O)Nc3nccs3)cc12
[1]
  AC50: 23.1 µM [falling, partial curve]

## Cc1ccc(C(=O)N/N=C2\CC3CC=CC23)c(C)c1 (stereo unspecified)
[1]
  AC50: 7.08 µM [falling, partial curve, poor fit]

## C=CCNc1nc(-c2ccccc2)nc(-n2ccnc2)n1
[1]
  AC50: 28.2 µM [falling, single point]

## CC(=O)N1N=C(c2ccncc2)OC12CCCC2
[1]
  AC50: 18.4 µM [rising, single point]

## Cc1ccc2nc(-c3ccccc3)cc(C(=O)N3CCc4ccccc4C3)c2c1
[2]
  AC50: 12.6 µM [rising, partial curve, poor fit]

## COc1ccc(OCC(O)Cn2c(N)nc3c2c(=O)[nH]c(=O)n3C)cc1 (stereo unspecified)
[1]
  AC50: 1.78 µM [rising, partial curve, poor fit]

## COC(=O)c1sccc1OCc1cccc(OC)c1
[1]
  AC50: 4.47 µM [rising, partial curve]

## Cc1ccc(NC(=O)N2CCc3ccccc3C2)cc1
[1]
  AC50: 23.1 µM [falling, partial curve, poor fit]

## O=C(CCl)c1ccc2c(c1)CCN2C(=O)C1CC1
[1]
  AC50: 35.5 µM [falling, single point]

## Cc1ccc(S(=O)(=O)N(CC(=O)N2CCOCC2)C2CCCCC2)cc1
[1]
  AC50: 5.8 µM [falling, single point]

## CCCCN(CC)C(=O)CSc1nc2ccccc2c(=O)n1Cc1ccco1
[1]
  AC50: 3.55 µM [falling, full curve, poor fit]

## CCC(=O)Nc1cccc(NC(=S)NC(=O)c2ccccc2)c1
[1]
  AC50: 20.6 µM [falling, partial curve, poor fit]

## O=C(Oc1ccccc1)c1cccnc1Oc1ccccc1
[1]
  AC50: 35.5 µM [rising, single point]

## Cc1ccc(NC(=S)NC(=O)c2ccc(F)cc2)cc1S(=O)(=O)Nc1cccc(Cl)c1
[1]
  AC50: 35.5 µM [falling, single point]
[2]
  AC50: 2.51 µM [falling, partial curve, poor fit]

## COc1cccc(NC2=Nc3cccc4cccc2c34)c1
[1]
  AC50: 16.4 µM [falling, partial curve]

## CC1C(=O)CC(c2ccccc2)N(C)C1c1ccccc1 (stereo unspecified)
[1]
  AC50: 0.58 µM [rising, full curve, poor fit]

## NNC(=O)c1cccc(COc2ccccc2Br)c1
[1]
  AC50: 35.5 µM [falling, single point]

## O=C(Nc1nc2c(s1)CCCC2)c1nn(Cc2ccccc2)c(=O)c2ccccc12
[1]
  AC50: 8.2 µM [rising, partial curve, poor fit]

## COc1cc(C=C(c2nc3ccccc3s2)c2nc3ccccc3s2)cc(OC)c1O
[1]
  AC50: 11.6 µM [falling, partial curve, poor fit]

## Cn1c(=O)[nH]c(=O)c2c1nc(SCC(O)CO)n2CCCc1ccccc1 (stereo unspecified)
[1]
  AC50: 35.5 µM [rising, single point]

## COc1ccccc1NC(=O)Nc1nc(CC(=O)NC2CCCC2)cs1
[1]
  AC50: 0.58 µM [rising, full curve]
